Measured values published in paper PMC12510010 (The Journal of Biological Chemistry, 2025).
Results are given in words; binding and its absence hold for the method and conditions named. For part of these data: In cells and extracts the contact can be indirect. Some results given as binding are weak or reduced against the parent protein; the word gives no strength. For part of these data: Sequences can lack the tags named with a protein. One block for each molecule: values may come before it.

Chains of the proteins cited; added tags and fusions are not shown.
UniProt Q15599: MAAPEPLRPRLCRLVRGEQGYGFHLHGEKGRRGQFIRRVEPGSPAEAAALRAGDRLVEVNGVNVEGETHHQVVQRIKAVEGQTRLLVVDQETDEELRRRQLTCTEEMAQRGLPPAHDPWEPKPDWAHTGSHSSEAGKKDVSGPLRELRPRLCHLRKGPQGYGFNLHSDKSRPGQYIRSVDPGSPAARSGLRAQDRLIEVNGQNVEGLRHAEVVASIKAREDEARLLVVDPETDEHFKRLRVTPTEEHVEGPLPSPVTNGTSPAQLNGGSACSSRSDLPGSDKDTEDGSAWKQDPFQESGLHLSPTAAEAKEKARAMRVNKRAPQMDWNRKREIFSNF

What was measured:
[1] = biological target: T1, GST-NHERF3 (human, UniProt Q5T2W1 1-519); assay: pull-down; 800 nM purified GST-NHERF1-4 or GST mixed with total lysate (1 mg protein) of HEK 293 cells overexpressing GCC, glutathione beads; GCC on the beads read by its cGMP formation (cGMP ELISA); only the target purified
T1 construct: also called PDZK1; CAP70
T1 sequence (looked up): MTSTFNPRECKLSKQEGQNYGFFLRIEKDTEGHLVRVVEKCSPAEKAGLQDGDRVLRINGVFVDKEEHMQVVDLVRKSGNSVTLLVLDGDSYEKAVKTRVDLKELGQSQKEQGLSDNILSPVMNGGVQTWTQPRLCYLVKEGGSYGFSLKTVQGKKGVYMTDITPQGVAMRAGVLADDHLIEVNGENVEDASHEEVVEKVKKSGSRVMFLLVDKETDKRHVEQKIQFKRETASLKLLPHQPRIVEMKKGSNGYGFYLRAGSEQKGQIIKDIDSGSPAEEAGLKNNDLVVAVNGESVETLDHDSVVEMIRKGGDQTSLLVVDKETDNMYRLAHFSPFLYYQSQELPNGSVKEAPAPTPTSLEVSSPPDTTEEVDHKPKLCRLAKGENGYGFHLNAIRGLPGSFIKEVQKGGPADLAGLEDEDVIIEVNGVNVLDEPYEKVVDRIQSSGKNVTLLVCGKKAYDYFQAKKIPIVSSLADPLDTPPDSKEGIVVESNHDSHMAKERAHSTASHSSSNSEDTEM

[2] = biological target: T2, GST-NHERF2 (human, UniProt Q15599 1-337); assay: as above
T2 construct: also called E3KARP; GST-tagged NHERF2

[3] = biological target: T3, GST-NHERF4 (human) (UniProt Q86UT5); assay: far-Western, overlay or dot blot; dot blot: GST-NHERF1-4 and GST on nitrocellulose, MRP4C50 overlaid, detected with S-protein HRP conjugate; both purified
T3 sequence: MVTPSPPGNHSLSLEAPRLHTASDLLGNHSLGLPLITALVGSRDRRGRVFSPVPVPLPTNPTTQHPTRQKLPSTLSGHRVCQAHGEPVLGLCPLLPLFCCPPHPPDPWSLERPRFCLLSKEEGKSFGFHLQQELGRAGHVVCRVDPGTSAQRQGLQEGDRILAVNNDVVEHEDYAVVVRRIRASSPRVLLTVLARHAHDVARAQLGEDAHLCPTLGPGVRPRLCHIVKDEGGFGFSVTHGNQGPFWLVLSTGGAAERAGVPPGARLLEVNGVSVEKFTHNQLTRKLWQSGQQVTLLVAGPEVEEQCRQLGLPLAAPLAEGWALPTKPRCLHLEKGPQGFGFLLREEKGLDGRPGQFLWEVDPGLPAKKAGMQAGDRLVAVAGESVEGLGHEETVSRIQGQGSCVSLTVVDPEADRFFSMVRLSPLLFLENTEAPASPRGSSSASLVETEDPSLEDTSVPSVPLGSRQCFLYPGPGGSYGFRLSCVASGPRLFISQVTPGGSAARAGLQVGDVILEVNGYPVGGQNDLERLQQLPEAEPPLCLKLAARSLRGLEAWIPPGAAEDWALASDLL

[4] = biological target: T1, GST-NHERF3; assay: as above
[5] = biological target: T2, GST-NHERF2; assay: as above
[6] = biological target: FLAG-GCC (human) (UniProt P25092); assay: co-IP; HEK-293 cells overexpressing FLAG-GCC with HA-NHERF3 or HA-NHERF4, treated with STc (0, 50 and 500 nM) for 30 min; FLAG-GCC immunoprecipitated, anti-HA blot
[7] = biological target: T4, GST-His-S-MRP4-C50 (UniProt O15439); assay: far-Western, overlay or dot blot; slot blot (macromolecular complex assay): GST-His-S-MRP4-C50 (0, 5 and 20 ug) and GST alone on nitrocellulose, 5 ug GST-NHERF3 overnight at 4 C, then 0.5 ug purified Flag-GCC-C50 at 4 C; detected with a GCC C-terminal specific antibody; both purified
T4 sequence: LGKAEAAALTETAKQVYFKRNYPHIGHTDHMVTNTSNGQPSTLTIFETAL

[8] = biological target: T3, GST-NHERF4 (human); assay: far-Western, overlay or dot blot; dot blot: GST-NHERF1-4 and GST on nitrocellulose, GCCC50 overlaid, probed with in-house anti-GCC rabbit polyclonal antibody; saturating NHERF, > 1.2 pmoles; both purified
[9] = biological target: FLAG-GCC (human) (UniProt P25092); assay: co-IP

Molecule: HA-GCC (from UniProt P25092 24-1073) (receptor)
binding [1]: binds
binding [2]: binds

Molecule: LGKAEAAALTETAKQVYFKRNYPHIGHTDHMVTNTSNGQPSTLTIFETAL (domain or fragment, UniProt O15439 1276-1325) [GST-His-S-MRP4-C50]
binding [3]: binds
binding [4]: binds
binding [5]: binds

B2: GST-NHERF3 (protein, UniProt Q5T2W1 1-519)
chain: MTSTFNPRECKLSKQEGQNYGFFLRIEKDTEGHLVRVVEKCSPAEKAGLQDGDRVLRINGVFVDKEEHMQVVDLVRKSGNSVTLLVLDGDSYEKAVKTRVDLKELGQSQKEQGLSDNILSPVMNGGVQTWTQPRLCYLVKEGGSYGFSLKTVQGKKGVYMTDITPQGVAMRAGVLADDHLIEVNGENVEDASHEEVVEKVKKSGSRVMFLLVDKETDKRHVEQKIQFKRETASLKLLPHQPRIVEMKKGSNGYGFYLRAGSEQKGQIIKDIDSGSPAEEAGLKNNDLVVAVNGESVETLDHDSVVEMIRKGGDQTSLLVVDKETDNMYRLAHFSPFLYYQSQELPNGSVKEAPAPTPTSLEVSSPPDTTEEVDHKPKLCRLAKGENGYGFHLNAIRGLPGSFIKEVQKGGPADLAGLEDEDVIIEVNGVNVLDEPYEKVVDRIQSSGKNVTLLVCGKKAYDYFQAKKIPIVSSLADPLDTPPDSKEGIVVESNHDSHMAKERAHSTASHSSSNSEDTEM
binding [7]: binds

Molecule: AEFSDMIANSLQKRQAAGIRSQKPRRVASYKKGTLEYLQLNTTDKESTYF (domain or fragment, human, UniProt P25092 1024-1073, looked up) [C-terminal 50 amino acids of GCC (GCCC50)]
binding [8]: binds

Next, values leading:

binding [6]: binds
B1: HA-NHERF3 (protein, UniProt Q5T2W1 1-519)
chain: MTSTFNPRECKLSKQEGQNYGFFLRIEKDTEGHLVRVVEKCSPAEKAGLQDGDRVLRINGVFVDKEEHMQVVDLVRKSGNSVTLLVLDGDSYEKAVKTRVDLKELGQSQKEQGLSDNILSPVMNGGVQTWTQPRLCYLVKEGGSYGFSLKTVQGKKGVYMTDITPQGVAMRAGVLADDHLIEVNGENVEDASHEEVVEKVKKSGSRVMFLLVDKETDKRHVEQKIQFKRETASLKLLPHQPRIVEMKKGSNGYGFYLRAGSEQKGQIIKDIDSGSPAEEAGLKNNDLVVAVNGESVETLDHDSVVEMIRKGGDQTSLLVVDKETDNMYRLAHFSPFLYYQSQELPNGSVKEAPAPTPTSLEVSSPPDTTEEVDHKPKLCRLAKGENGYGFHLNAIRGLPGSFIKEVQKGGPADLAGLEDEDVIIEVNGVNVLDEPYEKVVDRIQSSGKNVTLLVCGKKAYDYFQAKKIPIVSSLADPLDTPPDSKEGIVVESNHDSHMAKERAHSTASHSSSNSEDTEM

binding [9]: binds
B3: GST-NHERF4 (natural protein, human, UniProt Q86UT5 1-571, looked up)
chain: MVTPSPPGNHSLSLEAPRLHTASDLLGNHSLGLPLITALVGSRDRRGRVFSPVPVPLPTNPTTQHPTRQKLPSTLSGHRVCQAHGEPVLGLCPLLPLFCCPPHPPDPWSLERPRFCLLSKEEGKSFGFHLQQELGRAGHVVCRVDPGTSAQRQGLQEGDRILAVNNDVVEHEDYAVVVRRIRASSPRVLLTVLARHAHDVARAQLGEDAHLCPTLGPGVRPRLCHIVKDEGGFGFSVTHGNQGPFWLVLSTGGAAERAGVPPGARLLEVNGVSVEKFTHNQLTRKLWQSGQQVTLLVAGPEVEEQCRQLGLPLAAPLAEGWALPTKPRCLHLEKGPQGFGFLLREEKGLDGRPGQFLWEVDPGLPAKKAGMQAGDRLVAVAGESVEGLGHEETVSRIQGQGSCVSLTVVDPEADRFFSMVRLSPLLFLENTEAPASPRGSSSASLVETEDPSLEDTSVPSVPLGSRQCFLYPGPGGSYGFRLSCVASGPRLFISQVTPGGSAARAGLQVGDVILEVNGYPVGGQNDLERLQQLPEAEPPLCLKLAARSLRGLEAWIPPGAAEDWALASDLL
